Broadly, the AC50 is the midpoint of the concentration-response curve, whichever way the signal moves.

From PubChem BioAssay AID445 (National Center for Advancing Translational Sciences (NCATS), 2006) come the findings set out here.

A short description of this assay: IkB Signaling. As to conditions: ABC-DLBCL IkBa-CBG/CBR dual luciferase ratio (green luciferase fused to IkBa over red control in OCI-Ly3 lymphoma cells), 4 h. Summed up:
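Luminescence ratio of IκBα-fused green versus native red beetle luciferase in OCI-Ly3 cells, 4 h post-doxycycline with compound; red signal alone, scaled from basal (0%) to zero light (-100%), flagged nonspecific or cytotoxic effects.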

Where [1] appears, read: measured here: control luc red channel unless noted.
The mark [2] stands for this setting: measured here: IkB-luc green channel.
Where [3] appears, read: measured here: control luc red channel.

The other results are listed elsewhere or left out. Further columns of the screen follow, without active or inactive calls. Compounds called inactive in the main read-out are mostly missing here. Potencies come from curve fits of mixed quality, noted in brackets.

For the compound `COc1ccc(NC(=O)CCS(=O)(=O)c2ccc3c(c2)oc(=O)n3C)cc1OC`, the AC50 under setting [1] is 1.26 µM [rising, full curve].
Consider `CN(C)c1ccc2c(c1)OC(N)=C(C#N)C2c1cccc(F)c1` (stereo not given), for which the concentration at half-maximal activity (AC50) under setting [1] was 39.8 µM [falling, single point].
As for `COc1ccc(OC)c(NC(=O)c2cnc(N3CCCCC3)c3ccccc23)c1`, the AC50 under setting [1] is 0.501 µM [rising, full curve].
Take `Cc1cccc(C(c2sc3nc(-c4ccco4)nn3c2O)N2CCN(c3ccccc3F)CC2)c1` (stereo not given): the concentration at half-maximal activity (AC50) under setting [1] was 15.8 µM [falling, single point].
As for `O=C1C2C3C=CC(C3)C2C(=O)N1Cc1ccccc1` (stereo not given), the AC50 under setting [1] is 7.94 µM [falling, partial curve].
Turning to `Cc1ccc(C)c(CN2C(=O)c3ccccc3S(=O)c3ccc(C(=O)N(C)Cc4ccccc4)cc32)c1` (stereo not given), the AC50 under setting [1] is 0.794 µM [falling, single point].
On the same count and under the same terms, under `Cc1ccc(-n2ncc(C(=O)N3CCC(c4ccccc4)C3)c2C2CCN(C(=O)OC(C)(C)C)CC2)cc1` (stereo not given) stands 12.6 µM [falling, partial curve]; under `CCCCOc1ccc(CNC(=O)c2ccc(NC(=O)N3CCSc4ncccc43)cc2)cc1`, 10 µM [falling, partial curve].
The same measure, in the same setting: under `O=C(Nc1nc(-c2ccc(Br)cc2)ns1)c1ccccc1F` stands 0.126 µM [rising, full curve].
Take `Cc1cccc(N2CCN(C(=O)C3CCN(S(=O)(=O)c4ccc5c(c4)oc(=O)n5C)CC3)CC2)c1C`: the half-maximal activity concentration (AC50) under setting [1] was 25.1 µM [falling, partial curve].
In the case of `COC(=O)CCN(C(=O)c1c(C)oc2ncnc(N3CCOCC3)c12)c1ccccc1`, the half-maximal activity concentration (AC50) under setting [1] was 1.26 µM [rising, full curve, poor fit].
For `CCC(C)[C@@H](NC(=O)OC(C)(C)C)c1nnc(S(=O)(=O)Cc2cccc(C)c2)o1` (stereo not given in full), the half-maximal activity concentration (AC50) reads like this: under setting [2], 6.31 µM [rising, single point]; under setting [3], 12.6 µM [falling, partial curve].
On to `Cc1coc2cc3oc(=O)c(CC(=O)NCc4ccccc4)c(C)c3cc12`, for which the concentration at half-maximal activity (AC50) under setting [1] is 0.2 µM [falling, partial curve].
In the case of `CC(C)(C)c1ccc(S(=O)(=O)Nc2ccc(O)c(Sc3nc4ccccc4s3)c2)cc1`, under setting [1], the AC50 is 31.6 µM [falling, single point].
Regarding `CC(=O)N1CCCc2cc(S(=O)(=O)N3CCCC(C(=O)Nc4ccc(C)c(C)c4)C3)ccc21` (stereo not given), the AC50 under setting [1] was 0.0398 µM [falling, single point].
`COc1cccc(-c2cnc(NCc3ccccc3Cl)n2C)c1`: the AC50 under setting [1] was 12.6 µM [falling, partial curve].
As for `Cc1ccc(C(=O)Nc2ccc3oc(-c4cccnc4)nc3c2)c(Cl)c1`, under setting [1], the AC50 is 6.31 µM [falling, full curve].
Regarding `Cc1ccc(C)c(N2CCN(C(=O)c3cc4c(=O)n(Cc5cccs5)ccc4nc3C)CC2)c1`, the concentration at half-maximal activity (AC50) under setting [1] was 31.6 µM [falling, single point].
Regarding `Cc1ccc(NC(=O)/C(C#N)=C\c2ccc(Cl)cc2Cl)cc1C`, under setting [1], the concentration at half-maximal activity (AC50) was 25.1 µM [rising, partial curve].
As for `CCOC(=O)CN(C(=O)CSc1nnc2c(n1)[nH]c1ccc(OC)cc12)c1ccc(F)cc1`, the AC50 under setting [1] was 25.1 µM [falling, partial curve].
Same read-out and setting: the same measure for `CCOc1ccccc1NC(=O)N1CCN(S(=O)(=O)c2ccc3c(ccn3C)c2)CC1`: 15.8 µM [falling, single point]; for `CCN(c1ccc(C)cc1)S(=O)(=O)c1nnc(NC(=O)c2cccs2)s1`: 1.26 µM [falling, partial curve]; for `Cc1ccc(-c2ccc(CCC(=O)O)n2-c2ccc(C(C)C)cc2)cc1`: 15.8 µM [falling, partial curve].
As for `COc1ccccc1CNC(=O)Cn1ncc2c(C)n(Cc3ccccc3Cl)c(C)c2c1=O`, the AC50 under setting [1] was 12.6 µM [falling, partial curve].
As for `COC(=O)c1ccc(OCC(=O)c2ccc(O)cc2O)cc1`, the half-maximal activity concentration (AC50) under setting [1] is 25.1 µM [falling, partial curve].
The same measure, in the same setting: the same measure for `Cc1nnc(SCc2ccccc2)n1N`: 50.1 nM [rising, full curve, poor fit] [measured here: IkB-luc green channel].
Take `COc1ccccc1NC(=O)Cn1cnc2c(cnn2-c2ccc(C)c(C)c2)c1=O`: the concentration at half-maximal activity (AC50) under setting [1] is 20 µM [falling, partial curve].
Turning to `CCN(c1cc(C)cc(C)c1)S(=O)(=O)c1nnc(NC(=O)c2cccc(F)c2)s1`, the concentration at half-maximal activity (AC50) under setting [1] was 12.6 µM [falling, partial curve].
On the same count and under the same terms, the same measure for `CCc1ccc2c(c1)C(NC(C)=O)C(=O)N2CC` (stereo not given): 2 µM [rising, partial curve] [measured here: IkB-luc green channel].
Still for that read-out and setting: under `CCCC1=Nc2cc(C(=O)NCCc3ccc(OCC)cc3)ccc2Sc2ccccc21` stands 0.794 µM [falling, full curve].
In the case of `COc1cc2c(-c3ccccc3O)nc3c(c(C)nn3-c3ccccc3)c2cc1OC`, under setting [1], the concentration at half-maximal activity (AC50) is 39.8 µM [falling, single point].
Consider `Cc1nc2sc(C(c3cccs3)N3CC(C)CC(C)C3)c(O)n2n1` (stereo not given), for which the AC50 runs as follows: under setting [2], 31.6 µM [rising, partial curve]; under setting [3], 10 µM [falling, partial curve].
With `CCN(CCCNC(=O)c1ccc(Sc2ccc(F)cc2)c(NC(C)=O)c1)c1ccccc1`, the AC50 under setting [1] was 12.6 µM [falling, single point].
For the compound `COc1ccc(CNC(=O)Cn2c(=O)nc(-c3ccccc3F)c3cc(Cl)ccc32)cc1`, the half-maximal activity concentration (AC50) under setting [1] was 10 µM [falling, partial curve].
Regarding `CCN(CC)C(=O)CSc1nc2cc3c(cc2c(=O)n1CCCCCC(=O)NCc1ccc(OC)cc1)OCO3`, under setting [1], the concentration at half-maximal activity (AC50) is 39.8 µM [falling, single point].
Take `N#Cc1c(NC(=O)Cn2c(=O)oc3ccccc32)oc(-c2ccccc2)c1-c1ccccc1`: the half-maximal activity concentration (AC50) under setting [1] is 5.01 µM [falling, partial curve].
`Cc1ccc(-c2nc3c(C)cccn3c2Nc2ccccc2C)s1`: the concentration at half-maximal activity (AC50) under setting [1] was 25.1 µM [falling, partial curve].
With `Cc1ccc(F)cc1NC(=O)Cn1c(=O)nc(-c2ccccc2F)c2cc(Cl)ccc21`, under setting [1], the half-maximal activity concentration (AC50) is 3.98 µM [falling, full curve].
On the same count and under the same terms, under `O=c1oc2ccccc2cc1-c1cn2cccnc2n1` stands 20 µM [falling, partial curve]; under `CC1CCCN(c2nc3c(S(=O)(=O)c4ccc(C(C)C)cc4)nnn3c3ccsc23)C1` (stereo not given), 10 µM [falling, partial curve]; under `CCCCCn1c(=O)[nH]c2cc(C(=O)N3CCN(c4cc(Cl)ccc4C)CC3)ccc2c1=O`, 6.31 µM [falling, partial curve].
Regarding `Cc1ccc(C(=O)OCc2cc(=O)n3nc(-c4cccs4)sc3n2)cc1`, the AC50 under setting [1] is 1.58 µM [falling, full curve, poor fit].
Still for that read-out and setting: under `COc1ccccc1NC(=O)Cn1c(=O)n(Cc2cccs2)c(=O)c2cccnc21` stands 15.8 µM [falling, partial curve]; under `CCOC(=O)c1ccc(Nc2nc3nonc3nc2Nc2cccc(C)c2C)cc1`, 1.58 µM [falling, full curve].
On to `COCCn1nnnc1C(c1cc2ccc(C)cc2[nH]c1=O)N(Cc1ccco1)Cc1cccs1` (stereo not given), for which the half-maximal activity concentration (AC50) under setting [1] is 31.6 µM [falling, single point].
In the case of `Cc1cccc(NC(=O)Cn2cc(C(=O)C3CCCCC3)c3ccccc32)c1C`, the AC50 under setting [1] was 7.94 µM [falling, full curve].
On to `CCOc1ccc(C(=O)c2cn(CC(=O)Nc3ccc4c(c3)OCCO4)c3ccc(OC)cc3c2=O)cc1`, for which, under setting [1], the concentration at half-maximal activity (AC50) is 10 µM [falling, partial curve].
For the compound `O=C(NCc1ccccc1)c1cc2sccc2n1Cc1ccc(F)cc1`, under setting [1], the AC50 is 5.01 µM [falling, full curve, poor fit].
For `CC(=O)c1ccc(NC(=O)c2ccc3c(c2)nnn3C2CCCC2)cc1`, the AC50 under setting [1] was 39.8 µM [rising, single point].
In the case of `Cc1ccc(C)c(NC(=O)c2nc(S(C)(=O)=O)ncc2N(Cc2ccc(C(C)(C)C)cc2)Cc2ccco2)c1`, the AC50 under setting [1] was 31.6 µM [falling, single point].
As for `COc1cc(C2C(C#N)=C(N)Oc3cc(N(C)C)ccc32)cc2c1OCO2` (stereo not given), the AC50 by setting is: under setting [2], 0.316 µM [rising, full curve, poor fit]; under setting [3], 0.0501 µM [rising, full curve].
`Cn1c(=O)c(C(=O)CN2CCCc3ccccc32)c(N)n(Cc2ccccc2)c1=O`: under setting [1], the AC50 was 39.8 µM [falling, single point].
Regarding `COC(=O)C1=C(C)N(CCC2=CCCCC2)C(=O)C1`, the concentration at half-maximal activity (AC50) by setting is: under setting [2], 39.8 µM [rising, single point]; under setting [3], 31.6 µM [falling, single point].
As to `O=C(Oc1ccc2c(c1)OCO2)c1cc2c(s1)CCC2`, the half-maximal activity concentration (AC50) under setting [1] is 31.6 µM [rising, single point].
Consider `O=C(NC1CCCCC1)/C(=C/c1ccc(Cl)cc1)NC(=O)c1ccccc1`, for which the concentration at half-maximal activity (AC50) under setting [1] is 31.6 µM [falling, partial curve].
With `N#Cc1c(NC(=O)CSc2ncnc3sccc23)oc(-c2ccco2)c1-c1ccco1`, the AC50 under setting [1] was 15.8 µM [falling, partial curve].
For the compound `COC(=O)Cc1nc2ccccc2[nH]1`, under setting [1], the half-maximal activity concentration (AC50) was 10 µM [falling, partial curve].
`Cc1nn(-c2ccccc2)c2sc(C(=O)N3CCCCC3)cc12`: the AC50 under setting [1] was 20 µM [falling, single point].
On to `O=C(O)CCc1ccc(-c2ccc(Cl)cc2)n1-c1cccc(C(F)(F)F)c1`, for which, under setting [1], the half-maximal activity concentration (AC50) was 31.6 µM [falling, partial curve].
Consider `Cc1ccc2[nH]c3c(=O)n(CC(=O)N(C)Cc4ccccc4)ncc3c2c1`, for which, under setting [1], the AC50 was 20 µM [falling, single point].
As for `CCOC(=O)c1cnc(NCc2ccc(Cl)cc2)c2ccccc12`, the half-maximal activity concentration (AC50) under setting [1] is 39.8 µM [falling, partial curve].
